For five molecules, Odour description results are on record in US12552732B2, “Cyclopropanated sandalwood type compounds” (Symrise AG, priority 2020, dated 2026).

This data set in a line: Odour description.
Regarding `CC(CO)C1CC1C1CCC(C)C1(C)C` (centres unmarked) [2-[2-(2,2,3-trimethylcyclopentyl)cyclopropyl]propan-1-ol], the Odour description entry is listed as “cedarwood, sandalwood, creamy”.

Regarding `CCC(C=CC1CC2CC2(C)C1(C)C)CO` (centres unmarked) [2-ethyl-4-(1,2,2-trimethyl-3-bicyclo[3.1.0]hexanyl)but-3-en-1-ol], the Odour description result was “sandalwood, woody, green, fruity”.

Take `CC(CO)C1CC1C1CC2CC2(C)C1(C)C` (centres unmarked) [Compound 3b, 2-[2-(1,2,2-trimethyl-3-bicyclo[3.1.0]hexanyl)cyclo-propyl]propan-1-ol]: the Odour description entry is “green, floral, fruity, woody, creamy, sandal”.

In the case of `CC1CCC(CC=O)C1(C)C` (centres unmarked) [2-(2,2,3-trimethylcyclopentyl)acetaldehyde], the Odour description entry is reported as “fruity, sweet, anise”.

As for `CCC(CO)C1CC1C1CC2CC2(C)C1(C)C` (centres unmarked) [Compound 3a, 2-[2-(1,2,2-trimethyl-3-bicyclo[3.1.0]hexanyl)cyclopropyl]butan-1-ol], the Odour description result is listed as “sandal, cedarwood, floral, fruity, creamy, soft, green”.
